Out of some 340,000 compounds screened, about 6,200 (1.8%) were called active. Inconclusive means that the source gave no clear call. Such entries were picked first, then a sample of the others. Calls come from the whole dose curve; as a rule, active = well fitted activation curve with a large enough effect; inconclusive = small, poorly fitted or top-dose-only effect; inactive = no such curve, though single readings can be large or run the other way. Potencies of inconclusive entries are doubtful fits and often do not repeat.
assay: A quantitative high throughput screen for small molecules that induce DNA re-replication in SW480 colon adenocarcinoma cells.; note: nearly all actives have a fitted effect of over 55% in size; for re-replication activation: % of control where 0% means no effect; conditions: Hoechst DNA content imaging, 48 h; re-replication activation: at 46.1 µM (top of the series) unless noted
Outline: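 Compounds, transferred as 23 nL by pin tool, were incubated with cells for 48 hr; DNA content per nucleus was then quantified by Hoechst staining and fluorescence plate imaging.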
Potency is the fitted concentration of half-maximal effect.

**Q.** With `CCOc1ccccc1C1CC(=O)NC2=C1C(=O)CCC2` (stereo unspecified) as the molecule, how does the Potency read?
**A.** active: 18.4 µM

**Q.** For `CCOC1CCCC(n2cnc3c(=S)nc[nH]c32)O1` (stereo unspecified), which Potency is on record?
**A.** inconclusive: 16.4 µM [activator, single point]

**Q.** For `CCCCn1c(N)c(N(CCOC)C(=O)C2CCCN(C(=O)c3ccc(Cl)cc3)C2)c(=O)[nH]c1=O` (stereo unspecified), which Potency is on record?
**A.** inconclusive: 6.51 µM [activator, partial curve, poor fit]

**Q.** With `CC(C)C(=O)Nc1ccc(NC(=S)NC(=O)c2ccccc2F)cc1` as the molecule, how does the Potency read?
**A.** inactive

**Q.** Which Potency does the source give for `COC/C=C/C1=CC2=CC(=O)C(C)(OC(=O)c3cnc4ccccc4n3)C(=O)C2=CN1Cc1ccc(OC)cc1` (stereo unspecified) here?
**A.** inactive

**Q.** With `COc1ccc(C(CNC(=O)c2ccc(C)o2)N2CCOCC2)cc1` (stereo unspecified) as the molecule, how does the Potency read?
**A.** inactive

**Q.** With `Cc1ccc(C(=S)NCS(=O)(=O)c2ccc(C)cc2)cc1` as the molecule, how does the Potency read?
**A.** inconclusive: 29.1 µM [activator, single point]

**Q.** With `N#Cc1ccccc1S(=O)(=O)N1CCN(C(=O)c2ccc(-n3cncn3)c([N+](=O)[O-])c2)CC1` as the molecule, how does the Potency read?
**A.** inactive

**Q.** Which Potency does the source give for `COc1ccc(C(C(=O)NC2CCCCC2)N(C(=O)CCl)c2ccccc2Cl)cc1` (stereo unspecified) here?
**A.** inconclusive: 3.66 µM [activator, single point]

**Q.** With `CC(=O)Nc1sc(C)c(C)c1C(=O)Nc1ccc(C)cc1` as the molecule, how does the Potency read?
**A.** inconclusive: 29.1 µM [activator, single point]

**Q.** For `Cn1c(=O)n(Cc2ccccc2Cl)c(=O)c2c1[nH]c(=S)n2C`, which Potency is on record?
**A.** inactive

**Q.** Which Potency does the source give for `CCOC(=O)c1ccccc1NC(=O)Cn1cnc2c(cnn2-c2ccccc2)c1=O` here?
**A.** inactive

**Q.** With `O=C(/C=C/c1ccccc1)CC(O)(c1ccccc1)C(F)(F)C(F)F` (stereo unspecified) as the molecule, how does the Potency read?
**A.** inactive

**Q.** For `COc1ccccc1/C=N\Nc1ccccc1[N+](=O)[O-]`, which Potency is on record?
**A.** inactive

**Q.** For `COc1cccc(O)c1CN1CCC(C(=O)Nc2ccc(Oc3cccnc3)cc2)CC1`, which Potency is on record?
**A.** inactive

**Q.** With `CCn1c(SCC(=O)N2CCc3ccccc32)nnc1-c1ccco1` as the molecule, how does the Potency read?
**A.** inconclusive: 35.5 µM [activator, single point]

**Q.** For `Cc1ccccc1OCc1nc2ccccc2c(=O)n1/N=C/c1cn[nH]c1-c1ccc(Br)cc1`, which Potency is on record?
**A.** inconclusive: 16.4 µM [activator, single point]

**Q.** For `COc1cc(OC)c(-c2noc(C(=O)OC(C)(C)C)c2C(=O)OC(C)(C)C)c(OC)c1`, which Potency is on record?
**A.** inconclusive: 8.2 µM [activator, partial curve, poor fit]

**Q.** For `O=C(Nc1ccc([N+](=O)[O-])cc1)C1CC1(c1ccccc1)c1ccccc1` (stereo unspecified), which Potency is on record?
**A.** inconclusive: 14.6 µM [activator, partial curve, poor fit]

**Q.** Which Potency does the source give for `COc1ccc2c(c1)sc1nc(-c3ccccc3)cn12` here?
**A.** inconclusive: 0.82 µM [activator, full curve, poor fit]

**Q.** Which Potency does the source give for `c1cncc(-c2nc(NCc3ccc4c(c3)OCO4)c3ccccc3n2)c1` here?
**A.** inconclusive: 29.1 µM [activator, single point]

**Q.** For `CCCCn1c2c(c(=N)c3c1CCC3)CCC2`, which re-replication activation is on record?
**A.** inactive: -2.73% [at 9.22 µM]

**Q.** Which Potency does the source give for `COc1cccc(C2CC(c3c(-c4ccccc4)c4cc(Cl)ccc4[nH]c3=O)=NN2S(C)(=O)=O)c1OC` (stereo unspecified) here?
**A.** inconclusive: 16.4 µM [activator, partial curve, poor fit]

**Q.** With `CN1C(=O)C(O)(CC(=O)/C=C/c2ccco2)c2ccccc21` (stereo unspecified) as the molecule, how does the Potency read?
**A.** inconclusive: 20.6 µM [activator, partial curve, poor fit]

**Q.** With `CCOC(=O)c1c(-c2ccc(C)s2)csc1NC(=O)c1cccs1` as the molecule, how does the Potency read?
**A.** inactive

**Q.** With `CC1(C)Cc2nc3sc4c(SCC(=O)NCc5ccco5)ncnc4c3cc2CO1` as the molecule, how does the Potency read?
**A.** active: 3.26 µM

**Q.** For `COC(=O)[C@]1(Cc2ccccc2)N[C@H](c2ccc(-c3ccccc3)cc2)[C@@H]2C(=O)N(C)C(=O)[C@@H]21`, which Potency is on record?
**A.** inactive

**Q.** Which Potency does the source give for `Cc1c(/C=C/C(=O)c2ccc(C(C)C)cc2)cnn1C` here?
**A.** inconclusive: 1.03 µM [activator, full curve, poor fit]

**Q.** For `C=CCN1C(=O)/C(=N/n2cnnc2)c2ccccc21`, which Potency is on record?
**A.** inconclusive: 18.4 µM [activator, single point]

**Q.** With `Cc1ccc(NC(=O)c2ccc(Nc3c([N+](=O)[O-])cc([N+](=O)[O-])cc3[N+](=O)[O-])cc2)cc1` as the molecule, how does the Potency read?
**A.** inconclusive: 18.4 µM [activator, single point]

**Q.** Which Potency does the source give for `Cc1ccc(NC(=O)CSCc2cc(=O)n3ccsc3n2)c(C)c1` here?
**A.** inactive

**Q.** Which Potency does the source give for `CCCCc1nc2cc(C(=O)NCc3ccccn3)ccc2o1` here?
**A.** inconclusive: 16.4 µM [activator, partial curve, poor fit]

**Q.** For `COc1ccc(-c2c(-c3ccc(O)cc3O)n[nH]c2C(F)(F)F)cc1`, which Potency is on record?
**A.** active: 11.6 µM

**Q.** With `COc1cccc(CN2c3ccc(Br)cc3C(=O)CS2(=O)=O)c1` as the molecule, how does the Potency read?
**A.** inactive

**Q.** For `Cc1c(C(=O)Nc2ccc(S(=O)(=O)N(C)C3CCN(C)CC3)cc2)oc2ccccc12`, which Potency is on record?
**A.** inconclusive: 29.1 µM [activator, single point]

**Q.** For `CCc1noc(C)c1C(=O)N1CCN(S(=O)(=O)c2ccc(Cl)cc2)CC1`, which re-replication activation is on record?
**A.** inconclusive: -46.4% [activator]

**Q.** With `O=C(Nc1ccccc1N1CCCCC1)c1cccs1` as the molecule, how does the Potency read?
**A.** inactive

**Q.** Which Potency does the source give for `COc1ccc2occ(C(=O)c3ccc(N)cc3)c2c1` here?
**A.** inactive

**Q.** With `C=CCNC(=S)Nc1ccc(C(N)=O)cc1` as the molecule, how does the Potency read?
**A.** inactive

**Q.** With `COc1cc(NC(C)CCCN)c2ncccc2c1` (stereo unspecified) as the molecule, how does the Potency read?
**A.** inconclusive: 1.03 µM [activator, partial curve, poor fit]

**Q.** For `NC(=O)Nc1ccc(C(=O)OCC(=O)Nc2ccc([N+](=O)[O-])cc2C(F)(F)F)cc1`, which Potency is on record?
**A.** inconclusive: 4.11 µM [activator, single point]

**Q.** For `O=C(Nc1ccc(S(=O)(=O)N2CCCC2)cc1)c1cc(=O)c2ccccc2o1`, which Potency is on record?
**A.** inactive

**Q.** For `Cc1ccnc(NC(c2ccsc2)c2ccc3ccc(C)nc3c2O)c1` (stereo unspecified), which Potency is on record?
**A.** inconclusive: 29.1 µM [activator, single point]

**Q.** For `C=CCN1C(=O)/C(=C/C(=O)OC)S/C1=N\NC(=O)c1ccccc1`, which Potency is on record?
**A.** inconclusive: 29.1 µM [activator, single point]

**Q.** With `O=C(Nc1cccc(Cl)c1)N1CCCC1` as the molecule, how does the Potency read?
**A.** inconclusive: 18.4 µM [activator, single point]

**Q.** Which Potency does the source give for `C(=N\NCc1ccccc1)/c1ccc2ncccc2c1` here?
**A.** inconclusive: 18.4 µM [activator, partial curve, poor fit]

**Q.** For `Cc1cc(C)c2c(CC(=O)NN(C)C)coc2c1`, which Potency is on record?
**A.** inconclusive: 35.5 µM [activator, single point]

**Q.** For `COc1ccc(/C=N\NC(=O)c2ccccc2Br)cc1COc1ccccc1`, which Potency is on record?
**A.** inconclusive: 8.2 µM [activator, partial curve, poor fit]

**Q.** With `CCOC(=O)Cc1csc(NC(=O)CCCCCN2C(=O)c3ccccc3C2=O)n1` as the molecule, how does the Potency read?
**A.** inconclusive: 29.1 µM [activator, single point]

**Q.** Which Potency does the source give for `O=C(Nc1ccc2nc(-c3ccco3)[nH]c2c1)c1cccs1` here?
**A.** inactive

**Q.** Which Potency does the source give for `NCCNC[C@@H]1COC2(CCCCCCCCCCC2)O1` here?
**A.** inconclusive: 29.1 µM [activator, single point]

**Q.** For `CCOC(=O)c1ccc(NC(=S)NCCc2ccc(F)cc2)cc1`, which Potency is on record?
**A.** inconclusive: 29.1 µM [activator, single point]

**Q.** With `Cc1cccc(N(CC(=O)N2CCCCCC2)S(C)(=O)=O)c1` as the molecule, how does the Potency read?
**A.** inactive

**Q.** Which Potency does the source give for `CC1CCCN(CCCNC(=O)c2cc3c(Cl)nc4ccccc4c3s2)C1` (stereo unspecified) here?
**A.** inconclusive: 18.4 µM [activator, single point]

**Q.** Which Potency does the source give for `Cc1ccc(S(=O)(=O)N2CCCCC2)cc1NC(=O)COc1ccccc1` here?
**A.** inconclusive: 29.1 µM [activator, single point]

**Q.** With `CCOc1ccc(N2CC(NS(=O)(=O)c3cccs3)CC2=O)cc1` (stereo unspecified) as the molecule, how does the Potency read?
**A.** inactive

**Q.** Which Potency does the source give for `COc1ccccc1OCc1cc(C(=O)N2CCN(C)C(c3ccccc3)C2)no1` (stereo unspecified) here?
**A.** inactive

**Q.** With `COC(=O)c1cn(NC(=O)c2cc([N+](=O)[O-])ccc2F)c(=O)c2ccccc12` as the molecule, how does the Potency read?
**A.** inconclusive: 7.31 µM [activator, partial curve]

**Q.** Which Potency does the source give for `COc1ccc(C=NNC(=S)NC23CC4CC(CC(C4)C2)C3)cc1OC` here?
**A.** inconclusive: 1.03 µM [activator, full curve, poor fit]

**Q.** Which Potency does the source give for `Cc1cccc(NC(=O)[C@H](Cc2c[nH]c3ccccc23)NC(=O)[C@@H]2Cc3ccccc3CN2)c1` here?
**A.** active: 20.6 µM

**Q.** With `COc1cccc(NC(=O)N2CCCC2C(=O)NCc2ccccc2)c1` (stereo unspecified) as the molecule, how does the Potency read?
**A.** inconclusive: 29.1 µM [activator, single point]

**Q.** With `Cc1ccc(S(=O)(=O)N2CCN(C(=O)CCC(=O)Nc3ccc(F)cc3F)CC2)cc1` as the molecule, how does the Potency read?
**A.** inconclusive: 6.51 µM [activator, single point]

**Q.** With `CCN(Cc1ccncc1)C(=O)CCc1nnc(CCc2ccccc2OC)o1` as the molecule, how does the Potency read?
**A.** inconclusive: 5.17 µM [activator, full curve, poor fit]

**Q.** With `CCCCOc1ccc(CSCCN=C(N)N)cc1` as the molecule, how does the Potency read?
**A.** inconclusive: 29.1 µM [activator, partial curve, poor fit]

**Q.** For `CCN(CC)CCCNc1cc(C)nc2cc(-c3cccs3)nn12`, which Potency is on record?
**A.** inconclusive: 29.1 µM [activator, single point]

**Q.** For `CCOc1cc(/C=N/NC(=O)c2ccccn2)ccc1OC(=O)c1ccc(F)cc1`, which Potency is on record?
**A.** inactive

**Q.** Which Potency does the source give for `Nc1nc(Sc2ccc([N+](=O)[O-])c3nonc23)c2[nH]cnc2n1` here?
**A.** inconclusive: 2.59 µM [activator, partial curve, poor fit]

**Q.** For `O=C1OCC2=C1C(c1ccc(F)cc1)Sc1ccccc1N2` (stereo unspecified), which Potency is on record?
**A.** inactive

**Q.** With `Cc1ccc2c(C)c(C(=O)N3CCN(Cc4ccc5c(c4)OCO5)CC3)oc2c1C` as the molecule, how does the Potency read?
**A.** inactive

**Q.** For `S=C(Nc1ccccc1)Nc1ccccc1Br`, which Potency is on record?
**A.** inactive

**Q.** For `Cc1ccc(Nc2nnc(SCC(=O)Nc3ncc(C(F)(F)F)cc3Cl)s2)cc1`, which Potency is on record?
**A.** inconclusive: 0.517 µM [activator, full curve]

Reference: PubChem BioAssay AID624297 (National Center for Advancing Translational Sciences (NCATS), 2012)
